The values below come from PMC12639696.

Amino acid sequences for entries named in this document (tags omitted).
UniProt Q80YE7: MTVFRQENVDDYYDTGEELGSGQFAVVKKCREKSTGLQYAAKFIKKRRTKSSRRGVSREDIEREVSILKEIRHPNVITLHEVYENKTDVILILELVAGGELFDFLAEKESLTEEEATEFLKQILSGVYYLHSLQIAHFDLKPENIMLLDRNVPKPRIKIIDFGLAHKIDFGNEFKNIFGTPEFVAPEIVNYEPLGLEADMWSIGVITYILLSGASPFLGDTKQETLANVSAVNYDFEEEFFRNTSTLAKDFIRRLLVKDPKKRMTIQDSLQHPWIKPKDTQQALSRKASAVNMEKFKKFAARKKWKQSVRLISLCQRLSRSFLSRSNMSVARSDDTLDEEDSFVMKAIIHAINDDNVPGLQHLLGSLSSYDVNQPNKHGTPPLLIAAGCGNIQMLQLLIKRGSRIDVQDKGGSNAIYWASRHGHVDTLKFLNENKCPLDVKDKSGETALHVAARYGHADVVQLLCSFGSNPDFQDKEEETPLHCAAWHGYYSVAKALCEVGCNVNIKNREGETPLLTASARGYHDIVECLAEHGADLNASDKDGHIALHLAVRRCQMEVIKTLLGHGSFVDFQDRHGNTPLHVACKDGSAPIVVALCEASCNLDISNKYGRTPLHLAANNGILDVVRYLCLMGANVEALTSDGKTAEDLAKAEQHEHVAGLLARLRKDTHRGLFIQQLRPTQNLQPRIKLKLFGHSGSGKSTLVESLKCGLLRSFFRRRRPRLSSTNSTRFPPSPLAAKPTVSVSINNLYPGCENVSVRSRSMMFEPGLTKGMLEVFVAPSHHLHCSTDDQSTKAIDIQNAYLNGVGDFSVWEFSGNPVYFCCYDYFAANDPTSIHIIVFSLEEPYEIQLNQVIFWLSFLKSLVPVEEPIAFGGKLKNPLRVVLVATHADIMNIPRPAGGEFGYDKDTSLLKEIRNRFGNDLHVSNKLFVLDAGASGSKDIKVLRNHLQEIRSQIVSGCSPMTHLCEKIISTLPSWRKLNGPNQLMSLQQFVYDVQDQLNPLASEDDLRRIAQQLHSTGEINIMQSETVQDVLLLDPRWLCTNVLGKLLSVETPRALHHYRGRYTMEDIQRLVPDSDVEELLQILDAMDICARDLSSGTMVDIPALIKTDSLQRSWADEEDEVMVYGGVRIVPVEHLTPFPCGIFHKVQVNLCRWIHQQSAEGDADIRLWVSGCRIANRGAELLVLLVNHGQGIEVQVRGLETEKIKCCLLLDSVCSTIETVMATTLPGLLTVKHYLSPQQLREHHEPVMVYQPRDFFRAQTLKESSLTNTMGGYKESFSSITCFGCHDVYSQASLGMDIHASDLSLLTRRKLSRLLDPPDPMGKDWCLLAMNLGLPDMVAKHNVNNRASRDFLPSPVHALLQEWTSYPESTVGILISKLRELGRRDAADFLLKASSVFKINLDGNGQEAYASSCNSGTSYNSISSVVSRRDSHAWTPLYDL

Results are given in words; binding and its absence hold for the method and conditions named. In cells and extracts the contact can be indirect. Some entries that bind do so weakly or less than the wild type.

Test [1] addresses T1, endogenous SENP1 (N2a cells and mouse brain) (mouse (endogenous in N2a and mouse brain)) (UniProt P59110).
T1 sequence: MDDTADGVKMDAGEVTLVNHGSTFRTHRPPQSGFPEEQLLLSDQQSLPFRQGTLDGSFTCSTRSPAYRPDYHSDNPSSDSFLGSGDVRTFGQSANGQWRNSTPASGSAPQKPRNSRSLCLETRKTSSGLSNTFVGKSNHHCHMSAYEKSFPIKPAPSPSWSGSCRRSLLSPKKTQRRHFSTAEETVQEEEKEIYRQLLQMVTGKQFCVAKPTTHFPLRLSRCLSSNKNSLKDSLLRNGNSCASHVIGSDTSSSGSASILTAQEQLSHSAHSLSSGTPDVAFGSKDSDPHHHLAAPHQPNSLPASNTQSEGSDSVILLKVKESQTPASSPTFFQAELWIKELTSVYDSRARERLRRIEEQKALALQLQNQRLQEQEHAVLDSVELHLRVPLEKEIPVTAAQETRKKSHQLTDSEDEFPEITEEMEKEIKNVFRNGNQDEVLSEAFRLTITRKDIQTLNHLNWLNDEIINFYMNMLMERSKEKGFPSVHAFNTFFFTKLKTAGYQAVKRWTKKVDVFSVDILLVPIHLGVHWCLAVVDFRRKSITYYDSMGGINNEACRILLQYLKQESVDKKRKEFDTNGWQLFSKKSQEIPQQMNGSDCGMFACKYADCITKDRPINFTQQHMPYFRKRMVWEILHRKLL
The test is described as follows: co-IP; endogenous proteins in mouse brain tissue; indicated antibodies, protein A/G agarose; immunoblot.

Test [2] has as its target T1, endogenous SENP1 (N2a cells and mouse brain) (mouse (endogenous in N2a and mouse brain)). The test is described as follows: co-IP; endogenous proteins in N2a cell lysate; indicated antibodies, protein A/G agarose, NP-40 lysis buffer; immunoblot. In general terms: A western blot detects proteins with antibodies after separation by electrophoresis.

Regarding “endogenous DAPK1 (N2a cells and mouse brain) (from UniProt Q80YE7 1-1442) (enzyme)”, the binding result in test [1] and in test [2] was “binds” in each case.
